Taken from: PubChem BioAssay AID1259425 (University of Nebraska Medical Center, 2018)

Assay: 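Seek colon cancer weak points whose silencing resembles KSR1 loss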 (primary screen)
System: HCT116 human colon cancer cells
Reagents: siRNA pool against human genes, 50 nM siRNA
Read-out: 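mRNA of six signature genes measured together by branched-DNA assay after 50 nM siRNA pool, blank removed, divided by geometric mean of two housekeeping genes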
Direction: BNIP3L mRNA: higher = more BNIP3L transcript after knockdown
The whole screen tested about 14,000 reagents; this is a random part of them. Some reagents were tested in more than one well and are listed for each. Further read-outs or replicates are left out here. No sequences are given here. Not stated in the record: the time to read-out.

RPA2 scored BNIP3L mRNA, set 1 = 0.085.
After knock-down of DEAF1, the screen gave BNIP3L mRNA, set 1 = 0.149.
NLGN3 gave BNIP3L mRNA, set 1 = 0.14.
ZC3H11A scored BNIP3L mRNA, set 1 = 0.071.
Against ADGRG6, the entry reads BNIP3L mRNA, set 1 = 0.226.
For BDH2 the deposit lists BNIP3L mRNA, set 1 = 0.222.
For CCRL2, the entry reads BNIP3L mRNA, set 1 = 0.133.
With knock-down of CACNA2D2 the results were BNIP3L mRNA, set 1 = 0.104.
Knock-down of IST1 came out at: BNIP3L mRNA, set 1 = 0.0624.
Against PTPRD, the entry reads BNIP3L mRNA, set 1 = 0.0675.
After knock-down of MYDGF, the screen gave BNIP3L mRNA, set 1 = 0.229.
Against MAOB, the values are BNIP3L mRNA, set 1 = 0.117.
With knock-down of NIPAL2 the results were BNIP3L mRNA, set 1 = 0.142.
Against MAPKAPK3, the values are BNIP3L mRNA, set 1 = 0.125.
With knock-down of RBBP5, the record shows BNIP3L mRNA, set 1 = 0.0651.
Depletion of PTPN5 resulted in: BNIP3L mRNA, set 1 = 0.143.
After knock-down of GRIN3A, the record shows BNIP3L mRNA, set 1 = 0.127.
Against SNAPIN, the entry reads BNIP3L mRNA, set 1 = 0.179.

Entries listed so far whose target name starts with C or c (2):
CCRL2: BNIP3L mRNA, set 1 = 0.133
CACNA2D2: BNIP3L mRNA, set 1 = 0.104

Continued.
NPR1 showed BNIP3L mRNA, set 1 = 0.185.
With knock-down of NPR1 the results were BNIP3L mRNA, set 1 = 0.11.
SCN3B scored BNIP3L mRNA, set 1 = 0.111.
PRMT1 gave BNIP3L mRNA, set 1 = 0.0421.
SLC1A3 scored BNIP3L mRNA, set 1 = 0.104.
Against CRLF1 the deposit lists BNIP3L mRNA, set 1 = 0.159.
After knock-down of SLCO5A1, the record shows BNIP3L mRNA, set 1 = 0.162.
Against TRAF3, the values are BNIP3L mRNA, set 1 = 0.0789.
For OXSR1, the entry reads BNIP3L mRNA, set 1 = 0.0559.
After knock-down of GOSR2, the screen gave BNIP3L mRNA, set 1 = 0.0511.
CD79A gave BNIP3L mRNA, set 1 = 0.0663.
Against CNGA4, the values are BNIP3L mRNA, set 1 = 0.128.
After knock-down of CSPG4P2Y, the record shows BNIP3L mRNA, set 1 = 0.228.
OR7E5P showed BNIP3L mRNA, set 1 = 0.191.
After knock-down of NSUN3, the screen gave BNIP3L mRNA, set 1 = 0.0641.
Depletion of ADARB1 gave: BNIP3L mRNA, set 1 = 0.104.
FAR1 scored BNIP3L mRNA, set 1 = 0.254.
Silencing of PSD gave: BNIP3L mRNA, set 1 = 0.0749.
